1 substance from PMC9889330 can be followed below.

Sequences of proteins named here, by UniProt entry; tags and fusion partners are left off.
UniProt Q12778: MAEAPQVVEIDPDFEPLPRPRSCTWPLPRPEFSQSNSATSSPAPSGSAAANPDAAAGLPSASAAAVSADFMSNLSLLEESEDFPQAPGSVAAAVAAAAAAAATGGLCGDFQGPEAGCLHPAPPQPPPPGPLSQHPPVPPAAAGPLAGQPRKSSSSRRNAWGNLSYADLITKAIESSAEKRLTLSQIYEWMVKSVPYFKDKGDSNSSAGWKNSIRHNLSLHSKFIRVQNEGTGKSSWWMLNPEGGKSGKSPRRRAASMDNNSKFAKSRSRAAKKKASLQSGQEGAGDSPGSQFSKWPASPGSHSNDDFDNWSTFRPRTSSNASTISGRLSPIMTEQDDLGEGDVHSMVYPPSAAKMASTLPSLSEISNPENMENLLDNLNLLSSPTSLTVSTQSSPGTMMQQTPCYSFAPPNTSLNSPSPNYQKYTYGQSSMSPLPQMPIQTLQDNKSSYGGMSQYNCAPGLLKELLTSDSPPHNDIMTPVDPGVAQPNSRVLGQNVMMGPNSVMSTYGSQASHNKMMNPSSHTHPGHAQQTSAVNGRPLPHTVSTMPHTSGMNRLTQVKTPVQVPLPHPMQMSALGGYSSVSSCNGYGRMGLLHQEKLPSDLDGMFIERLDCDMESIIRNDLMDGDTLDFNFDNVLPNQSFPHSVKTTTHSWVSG

The experiment has as its target T1, serum/glucocorticoid regulated kinase 2 (SGK2) (UniProt Q9HBY8).
T1 sequence: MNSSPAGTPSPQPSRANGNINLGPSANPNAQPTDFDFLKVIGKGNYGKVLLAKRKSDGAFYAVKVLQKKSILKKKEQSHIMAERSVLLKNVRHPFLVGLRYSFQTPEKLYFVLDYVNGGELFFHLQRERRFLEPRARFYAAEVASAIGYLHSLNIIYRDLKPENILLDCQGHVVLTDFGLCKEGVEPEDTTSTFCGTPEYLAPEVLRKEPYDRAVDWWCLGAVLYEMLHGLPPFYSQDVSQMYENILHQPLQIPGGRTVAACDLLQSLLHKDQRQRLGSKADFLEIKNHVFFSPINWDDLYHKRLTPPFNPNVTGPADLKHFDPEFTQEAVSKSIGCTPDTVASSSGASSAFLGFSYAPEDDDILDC
The experiment can be described thus: co-IP; lysates of PC3 and DU145 cells with SGK2 overexpression; 5 ug antibody (anti-SGK2 or anti-FOXO1) and 500 ug protein, Protein A + G magnetic beads overnight at 4 °C, washed with Tris-buffered saline; anti-IgG as negative control; western blot.

Results are given in words; binding and its absence hold for the method and conditions named. In cells and extracts the contact can be indirect. Some binding calls cover weakened binding; strength is not graded here. Tags and fused reporters may be left off the sequences shown.

As to “forkhead box O1 (FOXO1) (from UniProt Q12778 1-655)”, the binding result is recorded as “binds”.
